From US20050164234A1, “Methods of using mammalian RNase H and compositions thereof” (priority 1997, published 2005)

Columns and labels:
[1] = target: Human RNase H1 (immunoprecipitated from HeLa) (Homo sapiens) (UniProt O60930); test: enzyme reaction in vitro; conditions: 37 C, protein in an extract, label: 5'-32P on RNA, DNA:RNA hybrid
[2] = target: T1, Human RNase H2 (immunoprecipitated from HeLa) (Homo sapiens) (UniProt O75792); test: enzyme reaction in vitro; conditions: 37 C, protein in an extract, label: 5'-32P on RNA, DNA:RNA hybrid
T1 sequence (limits assumed): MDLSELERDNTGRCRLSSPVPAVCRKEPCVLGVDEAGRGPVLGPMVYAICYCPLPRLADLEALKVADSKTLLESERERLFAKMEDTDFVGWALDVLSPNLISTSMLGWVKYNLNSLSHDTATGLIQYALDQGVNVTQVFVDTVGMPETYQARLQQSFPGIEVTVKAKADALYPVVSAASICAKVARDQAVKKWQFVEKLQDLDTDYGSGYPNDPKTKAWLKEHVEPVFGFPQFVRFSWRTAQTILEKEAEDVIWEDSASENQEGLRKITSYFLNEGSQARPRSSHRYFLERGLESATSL

[3] = target: T2, E. coli RNase H1 (Escherichia coli) (UniProt P0A7Y4); test: competition with a labelled probe; conditions: 2'-F on the strand complementary to the DNA; CITED Lima and Crooke 1997 Biochemistry 36, 390-398; purified recombinant protein
T2 sequence (limits assumed): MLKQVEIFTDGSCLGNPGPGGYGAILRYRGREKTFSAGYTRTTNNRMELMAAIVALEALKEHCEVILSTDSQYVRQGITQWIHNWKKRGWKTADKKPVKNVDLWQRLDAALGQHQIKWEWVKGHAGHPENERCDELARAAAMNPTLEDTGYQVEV

[4] = target: T3, RNase H1[ΔI-II] (Homo sapiens) (UniProt O60930); test: enzyme reaction in vitro; conditions: initial rate V0; 1 mM MgCl2, 37 C; cleaves 7-13 nt from 5'-RNA terminus; purified recombinant protein; protein details: His6; label: 5'-32P on RNA; DNA:RNA hybrid
T3 sequence: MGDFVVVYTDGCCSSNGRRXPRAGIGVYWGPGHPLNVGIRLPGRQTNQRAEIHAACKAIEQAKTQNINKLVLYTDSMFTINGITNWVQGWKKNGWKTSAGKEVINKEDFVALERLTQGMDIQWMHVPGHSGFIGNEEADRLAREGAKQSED

[5] = target: RNase H1[K226,227A] K226A,K227A (Homo sapiens) (UniProt O60930); test: enzyme reaction in vitro; conditions: initial rate V0; 1 mM MgCl2, 37 C; purified recombinant protein; protein details: His6; label: 5'-32P on RNA; DNA:RNA hybrid
[6] = target: T4, Human RNase H1 (wild type) (Homo sapiens) (UniProt O60930); test: enzyme reaction in vitro; conditions: initial rate V0; 17-nt heteroduplex, 1 mM MgCl2, 37 C; cleaves 8-12 nt from 5'-RNA terminus; purified recombinant protein; label: 5'-32P on RNA; DNA:RNA hybrid
T4 sequence: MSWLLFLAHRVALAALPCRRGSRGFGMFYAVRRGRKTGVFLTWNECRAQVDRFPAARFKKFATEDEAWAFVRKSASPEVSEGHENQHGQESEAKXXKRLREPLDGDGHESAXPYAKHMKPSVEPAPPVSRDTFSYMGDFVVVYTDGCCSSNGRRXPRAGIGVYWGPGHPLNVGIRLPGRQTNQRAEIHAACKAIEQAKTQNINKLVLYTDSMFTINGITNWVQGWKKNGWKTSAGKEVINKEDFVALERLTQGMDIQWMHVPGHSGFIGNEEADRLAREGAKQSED

[7] = target: RNase H1[ΔI] (Homo sapiens) (UniProt O60930); test: enzyme reaction in vitro; conditions: initial rate V0; 1 mM MgCl2, 37 C; cleaves 7-13 nt from 5'-RNA terminus; purified recombinant protein; protein details: His6; label: 5'-32P on RNA; DNA:RNA hybrid
[8] = target: RNase H1[K226,227,231,236A] K226A,K227A,K231A,K236A (Homo sapiens) (UniProt O60930); test: competition with a labelled probe; conditions: competitively inhibits wild-type RNase H1; rate about 60% slower; purified recombinant protein; protein details: His6; label: 5'-32P on RNA; DNA:RNA hybrid
[9] = target: RNase H1[D145N] (Homo sapiens) (UniProt O60930); test: competition with a labelled probe; conditions: competitively inhibits wild-type RNase H1; wild-type rate alone 6-fold faster; 10-fold mutant excess; purified recombinant protein; protein details: His6; label: 5'-32P on RNA; DNA:RNA hybrid

With “ACUGUGCGUGGAAAGCGUAG / CTACGCTTTCCACGCACAGT [20-mer Bcl-x RNA/DNA heteroduplex (ISIS 183349/ISIS 17619)]” the “activity on this sequence” value ([1]; denaturing gel) was “active” and the “activity on this sequence” value ([2]; denaturing gel, pattern differs from RNase H1) was “active”.
“CCACACCGACGGCGCCC / GGGCGCCGUCGGUGUGG [non-cleavable DNA/2'-fluoro heteroduplex]” was tested, and the Kd [3] was 1600 nM.
“GGGCGCCGUCGGUGUGG / CCACACCGACGGCGCCC [17-mer Ras RNA/DNA heteroduplex (ISIS 3058/ISIS 4701)]” was tested, and the “activity on this sequence” value [4] was “active”, the “activity on this sequence” value ([1]; TCA and gel assay, 50 nM duplex, pattern identical to purified RNase H1) was “active” and the “activity on this sequence” value [5] was “less active”. For the same sequence, the “activity on this sequence” value [6] was “active”, the “activity on this sequence” value [7] was “active” and the “activity on this sequence” value ([2]; TCA and gel assay, 50 nM duplex, cleavage pattern differs from RNase H1) was “active”. “GGGCGCCGUCGGUGUGG / CCACACCGACGGCGCCC [17-mer Ras RNA/DNA heteroduplex (ISIS 3058/ISIS 4701)]”: binds [8]; binds [9].

For some assays here: Protein sequences can lack the tags named with them. For some assays here: For at least one entry, the source does not settle the construct or the ends of the probe. For some assays here: A weaker result is weaker than the reference pair of the same experiment.
